# Experimental data as given in PubChem BioAssay AID493014 (National Center for Advancing Translational Sciences (NCATS), 2011).
# The other results are listed elsewhere or left out. The main result of the screen is listed elsewhere. These columns were measured beside it and carry no call. Compounds called inactive in the main read-out are mostly missing here. The note in brackets gives the kind of curve behind each potency; many fits are weak.
# Test: qHTS Assay to Find Inhibitors of Chronic Active B-Cell Receptor Signaling
# Details: ABC-DLBCL IkBa-CBG/CBR reporter, luminescence ratio (green luciferase fused to IkBa over red control in TMD8 lymphoma cells), 4 h
# Method in brief: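 TMD8 human ABC-DLBCL cells with doxycycline-inducible IκBα–green luciferase fusion and unfused red luciferase, in 0.5% FBS medium; compounds up to 46 uM, 4 h at 37C. Green/red luminescence ratio, filter-overlap corrected, fitted to concentration-response curves.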
# [1] = measured here: CBR red luminescence, cell number
# [2] = measured here: IkBa-CBG green luminescence
Compound,AC50 [1],AC50 [2]
Cn1c(=O)[nH]c(=O)c2c1nc(SCC(N)=O)n2Cc1cccc(Br)c1,"14.1 µM [rising, partial curve]","14.1 µM [falling, partial curve]"
Cc1ccc(C(=O)CNc2ccc(Cl)cc2)cc1,"10 µM [falling, partial curve]",–
COc1ccc(-c2nc3c(s2)CN(S(C)(=O)=O)CC3)cc1OC,"14.1 µM [rising, partial curve]",–
CCCOc1ccccc1NC(=O)/C=C/C(N)=O,"23.1 µM [falling, partial curve]","23.1 µM [rising, partial curve, poor fit]"
Cc1ccc(NCCCCO)cc1C,"6.31 µM [rising, single point]",–
C/C(=N\NC(=O)Cc1cccn1C)c1ccc2ccccc2c1,"2.91 µM [rising, single point]",–
COc1cc(NC(=O)C(C)Oc2ccccc2)cc(OC)c1 (stereo not drawn),"7.94 µM [rising, partial curve]",–
CC(C)C(=O)NNC(=O)c1csc(CS(=O)(=O)c2ccc(Cl)cc2)n1,"22.4 µM [rising, single point]",–
Cc1ccc(C(=O)OCC(=O)NCc2cccs2)cc1S(=O)(=O)N1CCOCC1,"0.794 µM [rising, full curve, poor fit]",–
COc1ccc(S(=O)(=O)Nc2ccc(S(=O)(=O)N3CCCCC3)cc2)cc1OC,"29.1 µM [rising, single point]",–
C=C(C)COc1ccc(-c2nc(N)ncc2-c2ccc(Br)cc2)c(O)c1,"7.94 µM [rising, partial curve, poor fit]",–
O=c1oc2ccccc2c(CNc2ccccc2)c1[N+](=O)[O-],"8.91 µM [falling, partial curve]",–
CCCCCC1CCC(c2n[nH]c(=S)n2C)CC1 (stereo not drawn),–,"10 µM [falling, partial curve]"
Cc1cc(NC(=O)Nc2cccc(Cl)c2)n(C(C)(C)C)n1,"35.5 µM [rising, single point]",–
COc1cc(C(=O)Nc2ccc3c(c2)ncn3C)cc(OC)c1OC,–,"35.5 µM [falling, single point]"
O=C(O)C1CCCCC1C(=O)Nc1ccc(OCc2ccccc2)cc1 (stereo not drawn),"11.2 µM [falling, partial curve, poor fit]",–
Cn1cnc2c(N/N=C/c3cccs3)ncnc21,"10 µM [falling, partial curve]",–
O=C(NC1=NCCS1)c1nc(-c2ccccc2)n(-c2ccccc2)n1,"5.8 µM [falling, single point]",–
Cc1ccc(NC(=O)CSc2nnc(-c3cccnc3)o2)c(C)c1,"20.6 µM [falling, partial curve, poor fit]",–
COc1ccc(NC(=O)CNCCC2=CCCCC2)cc1,"23.1 µM [rising, single point]",–
CC(=O)NC(C(=O)OCC(=O)N(c1ccccc1)c1ccccc1)C(C)C (stereo not drawn),"11.2 µM [rising, single point]",–
CCC1CCCCN1C(=S)NC1CCCCC1 (stereo not drawn),"29.1 µM [rising, single point]",–

Compound,AC50 [1],AC50 [2]
CCOC(=O)c1cnn2c(C(F)F)cc(C3CC3)nc12,"4.11 µM [rising, full curve, poor fit]",–
O=S(=O)(Nc1ccc(-c2ccc3nncn3n2)cc1)c1cc(F)ccc1F,"20.6 µM [rising, partial curve]",–
CCOC(=O)N1CCC(NC(=O)c2ccc3c(Cl)c4c(nc3c2)CCCC4)CC1,"29.1 µM [falling, single point]",–
O=C(O)Cc1coc(-c2ccc(F)cc2)n1,"25.9 µM [rising, partial curve, poor fit]",–
CCCc1cc(-c2[nH]ncc2-c2ccc3c(c2)OCCCO3)c(O)cc1OC,"32.6 µM [falling, single point]",–
CCc1ccccc1OCC(=O)OCC(=O)c1c(N)n(C)c(=O)n(C)c1=O,"31.6 µM [falling, single point]",–
Cc1ccc(CC(=O)O/N=C(\N)c2cccc([N+](=O)[O-])c2)cc1,"20.6 µM [rising, single point]",–
CC(C)Oc1ccc(S(=O)(=O)N2CCOCC2)cc1NC(=O)CC1OC(=O)c2ccccc21 (stereo not drawn),"2.31 µM [rising, partial curve, poor fit]",–
O=C1N=C(N2C=CC(=C3C=CNC=C3)C=C2)/C(=C/N=NC(=O)c2ccccc2O)S1,"12.6 µM [falling, partial curve, poor fit]",–
CCCNC(=O)c1cccc(C(F)(F)F)c1,"6.31 µM [rising, single point]",–
Cc1csc(Nc2ccccc2C(F)(F)F)n1,"0.251 µM [rising, full curve, poor fit]",–
COc1ccc(N(C)S(=O)(=O)c2cccc(C(=O)Nc3cccc(C(=O)NC4CC4)c3)c2)cc1,"3.66 µM [rising, partial curve, poor fit]",–
Cc1ccc(/C=C/C(=O)Nc2cccc(S(=O)(=O)N3CCOCC3)c2)o1,–,"32.6 µM [rising, partial curve, poor fit]"
COc1ccc2nc(NC(=O)CN3C(=O)NC4(CCCC4)C3=O)sc2c1,"10.3 µM [falling, partial curve, poor fit]",–
O=c1[nH]cnc2ccccc12,"0.291 µM [falling, partial curve, poor fit]",–
COc1ccc(-c2cc(-c3ccc(OC)cc3)[nH]n2)cc1,"1.78 µM [rising, partial curve, poor fit]",–
CCOC(=O)C1=C(C)N=C2SCCC(=O)N2C1c1sccc1C (stereo not drawn),"6.31 µM [falling, full curve, poor fit]",–
O=C(O)c1ccccc1-c1ccccc1C(=O)Nc1nccs1,"22.4 µM [falling, partial curve, poor fit]",–
O=C(NC(=S)N1CCCc2ccccc21)c1ccco1,"35.5 µM [rising, partial curve, poor fit]",–
COc1ccc(N2CCN(C(=O)CCCSc3nc4ccccc4[nH]3)CC2)cc1,"6.51 µM [rising, single point]",–
CCOc1ccc2c(c1)C(C)=CC(C)(C)N2S(=O)(=O)c1ccc(NC(C)=O)cc1,"2 µM [rising, partial curve, poor fit]","0.708 µM [falling, full curve, poor fit]"
Cc1ccc(Cl)c(Cn2cnc3c(cnn3C(C)(C)C)c2=O)c1F,"1.03 µM [rising, partial curve]",–

Compound,AC50 [1],AC50 [2]
c1ccc(-c2nn3cnnc3c3ccccc23)cc1,"5.01 µM [rising, full curve, poor fit]",–
CC(C)NC(=O)c1ccccc1NC(=O)C1COc2ccccc2O1 (stereo not drawn),"1.46 µM [rising, full curve]",–
Cc1cccc(N(C)C(=S)Oc2ccc3ccccc3c2)c1,"9.2 µM [rising, partial curve]",–
CS(=O)(=O)c1cnc(-c2ccccc2)nc1Sc1ccc(F)cc1,"0.562 µM [rising, full curve, poor fit]",–
CCO[C@@H]1OC(C(=O)N2CCCCCCC2)=C[C@H](c2ccc(C(F)(F)F)cc2)[C@H]1CCCO,"35.5 µM [falling, single point]",–
COc1ccc(CCn2c(=N)c(C(=O)NCCN3CCOCC3)cc3c(=O)n4ccccc4nc32)cc1OC,"31.6 µM [rising, single point]",–
Cc1ccc(-n2nc(C)c3c(C)c(CCC(=O)O)c(C)nc32)cc1,"35.5 µM [falling, single point]",–
CCN(CC)c1ccc(/C=N/NC(=O)CC(C)C)cc1,"5.01 µM [rising, single point]",–
CCOc1ccccc1CNC(=O)c1cc(-c2ccc(C)c(C)c2)nc2ccccc12,"3.16 µM [rising, single point]",–
CC(C)c1nnc(NC(=O)Cc2ccc(Br)cc2)s1,"6.51 µM [rising, single point]",–
CCOCCCN(C(=O)Cn1nnc(-c2ccc(C)o2)n1)C(C(=O)NC1CCCC1)c1ccc(C)o1 (stereo not drawn),"0.282 µM [rising, full curve, poor fit]",–
COC(=O)c1c(NC(=O)/C=C/C(=O)O)sc(C)c1-c1ccc(C)c(C)c1,"20.6 µM [falling, partial curve]",–
NC(=O)c1oc2ccccc2c1NC(=O)c1nc2ccccc2s1,"2.82 µM [falling, full curve]",–
CCc1nnc(NS(=O)(=O)c2ccc(NC(=S)NC(=O)c3cccs3)cc2)s1,"15.8 µM [falling, single point]",–
Cc1ccc(/C=C2/C(=O)c3ccc(C(=O)O)cc3C2=O)o1,"11.2 µM [falling, partial curve]",–
CC(C)CCn1cnc2c(cnn2-c2ccc(F)cc2)c1=O,"1.12 µM [rising, full curve, poor fit]",–
COc1ccc(N(CC(=O)Nc2ccccc2C(=O)NCCc2ccccc2)S(C)(=O)=O)cc1OC,"29.1 µM [falling, single point]",–
Cc1cc(C)cc(OCC(=O)OCC(=O)c2ccc3c(c2)NC(=O)CO3)c1,"6.51 µM [rising, single point]",–
CC(C)Cc1ccc(C(C)C(N)=NCCc2ccccc2)cc1 (stereo not drawn),"25.1 µM [falling, single point]",–
Cc1ccc(-c2noc(-c3ccccc3C(=O)NCC3CCCO3)n2)cc1 (stereo not drawn),"16.4 µM [rising, partial curve, poor fit]",–
CC(=NC1CCCCC1)C1=C(O)c2ccccc2C1=O,"35.5 µM [falling, partial curve, poor fit]",–

# 2 of the compounds above, as tab-separated lines:
Compound	AC50 [1]	AC50 [2]
Cc1cc(C)cc(OCC(=O)OCC(=O)c2ccc3c(c2)NC(=O)CO3)c1	6.51 µM [rising, single point]	–
CC(=NC1CCCCC1)C1=C(O)c2ccccc2C1=O	35.5 µM [falling, partial curve, poor fit]	–
